The results in this text go back to PubChem BioAssay AID1347423 (Functional Genomics Laboratory (NCATS/FGL), 2020).

The whole screen tested about 52,000 sequences, of which about 210 (0.4%) were called active.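 The calls were made as follows: active = gene whose silencing raises cell survival under the drug, median off-target-corrected z-score across its silencing RNAs 2 or more; inactive = the rest.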 The list shows a part of the results.

This test can be described thus: Resistance to Poly (ADP-Ribose) Polymerase inhibitor: Gene Identification via Genome-wide siRNA Screen. As to conditions: mouse BRCA2 R2336H ES cells, olaparib, CellTiter-Glo viability; hits give high values. The gist of the method:
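Mouse BRCA2 R2336H ES cells were reverse-transfected with siRNA (20 nM final), treated at 48 h with 500 nM olaparib, and read by CellTiter-Glo after 72 h. Scores: MAD-based z per siRNA, median per gene, seed off-target correction.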
(Cellular ATP, detected with luciferase, serves as a proxy for viable cell number.)
Consider GGCCAUCUCCUUCAACUAUTT against Ugt2a1, for which the z-score was inactive: 0.413. For GGCACAUUCAUGCAAUAAATT against Ctla2a, the z-score was inactive: -1.67. Consider GGAAAAUGUCCAUUACUUUTT against Acad9, for which the z-score was inactive: -0.938. The value for GGAGAUCUUUCACAUGACCTT against Hcn3 was inactive: 0.487; that for GGCCAAAGUUUACCUUCUATT against Iars was inactive: -3.02; that for CCUAUCUCCUAACUUAGUUTT against V1re12 was inactive: 0.575. For GGUGAAGAGUGAUUUUAAUTT against Il10 the value was inactive: -0.388.

Regarding GCGGCCUGUGAGAGUUUAUTT against Pcyt1a, the z-score was inactive: 1.92. For CCUUCGAUAAGAAUUACAATT against Rab34 the value was inactive: -1.28; for GGGAAUGAUUAAGCUAGCCTT against Acvr1b, inactive: 0.261; for GGGUUCACAUGGCAUAGUCTT against Zfp1, inactive: 0.034. For “CCUAAAUUUCCAACAGUCCTT against 4930429O20Rik” the value was inactive: 0.45.

Turning to GGUAAAGGUGGCUUUGAGATT against Olfr975, the z-score is inactive: -0.626. With GGAAGAGAGAUUCCUAUAGTT against Spc18, the z-score was inactive: -2.17. The value for GCACAUGUCUGUGAUUCAATT against Siat8a was inactive: 0.906; that for CCAUGAGUAUCAAGUCAAUTT against 9-Sep was inactive: 1.55; that for GGAGUAUUACCUGGUUAAGTT against Suv39h1 was inactive: -1.42. For GGCAUAGCUUGGAAUGGAATT against Npas2 the value was inactive: 0.622. For GGACACUGCGCAAGACUUCTT against Trim35 the value was inactive: 0.818. As for GGACACUUCCAAGUAUUGGTT against Tns, the z-score is inactive: 0.0153.

Regarding GGAAGUAUGGAAGUCAAGUTT against Defb9, the z-score was inactive: 2.12. For GGAGCACAUGUCCUACAUCTT against Wnt5b the value was inactive: -0.569; for GGUGAUCAUGGCAAGAUGGTT against Fgf3, inactive: -2.42. With GGUCUUCAGAAUCCUCAAUTT against Ap1g2, the z-score is inactive: 0.846. The value for “GUAGAAGAUGGAAUUUUUGTT against 3110001N18Rik” was inactive: 0.315; that for GGUUGUAACUUGUAAGGCATT against Ibrdc2 was inactive: 1.56. For the sequence “AGAACAUGGAGGUUAAGAUTT against 6330514A18Rik”, the z-score was inactive: 1.11. The value for GGGACACAUACUGUAGUAUTT against Pspc1 was inactive: -1.9e-10; that for GCCAGUAGAUUACUUCAUUTT against Cnnm3 was inactive: -1.45. The value for GCACGUGAACAACUCCAACTT against BC050811 was inactive: -0.0823. Consider GGGAAUCAAUGAAAAUGUGTT against Pcdh8, for which the z-score is inactive: 0.152. For GGUCCUAUGGAAAAAGAAATT against Msr1 the value was inactive: -0.675; for GCUGACGGACGAAUGCUACTT against Sema6c, inactive: 2.12; for GACUAACCAGAUGAAAGUCTT against V1rc3, inactive: 0.988. The value for GGACAACUGCUACGAAGUGTT against Zfp366 was inactive: 0.868; that for GGUGGAGACAGAAAUCCAATT against Amot was inactive: 0.963; that for GGAGUUUUAGGAUAUUCGATT against Adcyap1r1 was inactive: 0.495. The value for GCUCUCCCAUCUUUUCUAUTT against Lenep was inactive: -0.476; that for “GCACUUUUGUAAAAAUCACTT against D6Ertd245e” was inactive: -0.0742. For the sequence CACGGGCAUCCUUGACUCCTT against Mbp, the z-score was inactive: 0.994. The value for “GCACGAAGAACCACACAAGTT against 5830484A20Rik” was inactive: -0.63; that for GGGAUGACCUGCCAUUCAUTT against Atp7a was inactive: 0.448. For CCACUGUUUAAUAACCCUATT against Sc5d the value was inactive: -1.57; for GCAAAGCAUUGCUCUGAGGTT against Msx1, inactive: 0.43; for GCGGAAGUUAGAGUCGCUGTT against AK122525, inactive: 0.105. Turning to GGUUUGUAUGCUAUAGUUUTT against Cldn11, the z-score is inactive: -0.628.

With GGGUCUAUUUAUUUAGUAGTT against Alg8, the z-score was inactive: -0.485. Regarding GGAACUUACACAUUUGUUCTT against Tnfsf13b, the z-score was inactive: -0.466. Consider GGUCUAAAGUACAUCCACUTT against Mapk13, for which the z-score is inactive: 1.4. The value for GGGAAUGAAAAGUCAAAAGTT against Stard7 was inactive: 0.371; that for GGUGAUCAACCUGUACAAGTT against Gga1 was inactive: -0.716. For “CCCAACAAAUUGAAACAUATT against D330013L20Rik” the value was inactive: 1.56; for GGUUAAAGUGUAUUUACAGTT against Fkbp14, inactive: 0.226; for UGACAUAUCUUAAAUGUGGTT against Tas2r121, inactive: 0.102.

Turning to CCCAUUUUGAAGUGCUACCTT against Cyp27b1, the z-score is inactive: 0.733. On to CCCUCCAUGGAAAUGACAUTT against Slit3, for which the z-score was inactive: 0.0338.

As for GGCUGUCUUCAUCUUAGAUTT against Copz2, the z-score is inactive: 1.24.

In the case of GGGAGCAACUGUGUCAAAUTT against Ocsp, the z-score is inactive: 1.73. The value for CGACGACAUCAUAAAUUUCTT against Rapgef1 was inactive: 1.39. For GGGAUGCUGUAGAUGGAAUTT against Olfr978 the value was inactive: 1.41.

For “CCUGUCCAAUCAUCACAAGTT against 9130022K13Rik”, the z-score was inactive: -0.395. The value for GCACUUGACAAGCAACAGUTT against Jup was inactive: -0.42; that for GGUUAAAGUCUGUGGAUUUTT against Laf4l was inactive: 0.163.

In the case of CCACUGGACAGGAACAAAGTT against Rims1, the z-score is inactive: 0.0579. In the case of GGACUUUGAUCUGGAGCCATT against C1rl, the z-score was inactive: -1.36. For GGCAUCCAAUAAACAUAUUTT against Selpl the value was inactive: -1.53; for GGUACACAAAUGCUCGGGATT against Rnf130, inactive: 0.0469.

In the case of “GGCCUCUGACUUUAAAGGCTT against 4930553M18Rik”, the z-score is inactive: 0.206. For the sequence “GGUCAUUCCUGUGCACCAGTT against 5830406J20Rik”, the z-score was inactive: 0.616. Consider GGUUUUCUUCAUUCUUUCCTT against Zfp512, for which the z-score was inactive: 1.51. Regarding GCUGGUCUUCUCUAUCUUATT against Olfr744, the z-score was inactive: 0.189. For GCUCAUCUACCACCUCACUTT against AI646023 the value was inactive: -2.77; for GGUGUUUGUUUCUAACUUCTT against Glcci1, inactive: 0.883; for GGCCUCUUAUGUCAACCUGTT against Lamr1, inactive: -3.14. The value for GCAGUUAAAUGGACUAUCATT against BC017133 was inactive: -2.33; that for “CGGUCCCUAAGAAACUCUGTT against A630005A06Rik” was inactive: -0.717. For GCUUCUAGUCAACAUCCAGTT against Klf15 the value was inactive: -1.72; for GGAACCUAACAGAGAAACATT against Prpsap2, inactive: -0.531; for CCACGAUAGCACCUAUUUUTT against Gucy2c, inactive: 0.911. Consider “CCAAGGAGCAUUCUUUGGUTT against 1700024B05Rik”, for which the z-score is inactive: 1.34.

For “GGCUUUUUAUUCUCAGCCUTT against 2410005O16Rik”, the z-score was inactive: 1.03. The value for GCUAAGUCGGAUGAUAGAATT against Ttc16 was inactive: -0.611; that for GCACAAAGUCGACAAUGGATT against Csnk1e was inactive: -0.661. For UUCAUGUAGGUCUACUAUUTT against Olfr203 the value was inactive: 1.72; for CCUAUUCAAUUCAGUUCUATT against Slc36a4, inactive: 0.182. The value for GGUGUCUACGAGUGCUUCGTT against Gpbar1 was inactive: -0.151. For CCCAAUGCAAGACAUUAAGTT against Lrrc27, the z-score was inactive: 0.681. The value for GGUAUAAAGACCUUUUUUCTT against Bcl7a was inactive: 0.135. For GGGAGAAGCAAUUUUUAACTT against Gpr34 the value was inactive: 0.386; for CGGGAUCAGGUUUCACUGATT against BC067068, inactive: -0.289; for GCUGAUUUGUGGGAUCUGUTT against Trim13, inactive: -0.855. With GGAAAGAUGGUUUUUGUUUTT against Smug1, the z-score is inactive: 1.22.

As to CCAAGGUUGAGAACAGAUGTT against Rom1, the z-score is inactive: -1.96. Turning to “GGUGGAAUGUCACUACACUTT against 1810009B06Rik”, the z-score is inactive: 0.241.

With GGGAUAUUCGAUCCUCUAGTT against Slc22a4, the z-score is inactive: -1.11.

Regarding GCCAAGAGCAUAUCUUAGUTT against Dscr1, the z-score was inactive: -0.959.

In the case of GGAGAAAAAAGCAGUGGUUTT against Tk2, the z-score is inactive: -0.541. Regarding GGAAGUGUAAAGAGUUUAUTT against AI427515, the z-score was inactive: 1.15. The value for “CCCGGAAUGUUUAGUAUCGTT against 5830467P10Rik” was inactive: -0.788; that for GGAACUGUCACAACUGCUATT against Acat3 was inactive: -0.221.

On to GGCGAGUUUAUAGAAGAAATT against Phf19, for which the z-score is inactive: 0.5. For “GGGACCGUGAAGAAAAUUUTT against 1810008K16Rik” the value was inactive: 0.713; for CGGGAUGACUACAAUCUGGTT against Ssbp3, inactive: 2.38; for GGAGAAGAGAUCCCUGAACTT against Neurod2, inactive: 2. The value for GGCCGCUACCAGUUCAAUUTT against Hapln2 was inactive: -1.45.
